Record: PubChem BioAssay AID1224830 (NIAID, 2016)
Shown is an unselected part of about 18,000 reagents tested. Over the whole deposit, about 2,900 (16%) are marked active. 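Calls are made per well; low scores hint the gene aids the LPS response, high scores that it dampens it.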 Unmarked entries are inactive. Repeated entries: four replicate wells of each siRNA pool.

- Test: 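Genes whose knock-down alters the TNF-alpha reporter response to LPS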 (primary screen)
- Cell system: human THP-1 monocytic leukaemia cells, TNF dual-luciferase reporter clone, PMA-differentiated to macrophage-like cells
- Reagents: siRNA pool against human genes, 50 nM
- Time to read-out: LPS for 4 h, given about 3 days after siRNA transfection
- Treatment: bacterial LPS (TLR4 ligand), 10 ng/ml
- Detection: 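TNF firefly reporter luminescence divided by renilla, normalised to the plate median, then turned into a robust z-score for each replicate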
- Direction: TNF reporter robust z-score: higher = stronger TNF reporter response to LPS
- Active means: 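a well is active when its z-score exceeds 2.8 or falls below -1.5; control wells carry no call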

Target gene | TNF reporter robust z-score
RBMXL2 (RBMX like 2) | -0.12
RBMXL2 (RBMX like 2) | 1.22
RBMXL2 (RBMX like 2) | 0.44
RBMXL2 (RBMX like 2) | -0.53
CDC42EP5 (CDC42 effector protein 5) | 0.39
CDC42EP5 (CDC42 effector protein 5) | 0.64
CDC42EP5 (CDC42 effector protein 5) | 0.48
CDC42EP5 (CDC42 effector protein 5) | 0.41
LINC00303 (long independently transcribed non-coding RNA 303) | 0.43
LINC00303 (long independently transcribed non-coding RNA 303) | -0.87
LINC00303 (long independently transcribed non-coding RNA 303) | -1.22
LINC00303 (long independently transcribed non-coding RNA 303) | -0.76
CCNB2 (cyclin B2) | -1.41
CCNB2 (cyclin B2) | -1.33
CCNB2 (cyclin B2) | -1.27
CCNB2 (cyclin B2) | -0.68
HELQ (helicase, POLQ like) | 0.57
HELQ (helicase, POLQ like) | 1.32
HELQ (helicase, POLQ like) | 0.24
HELQ (helicase, POLQ like) | 1.69
ARGLU1 (arginine and glutamate rich 1) | 0.04
ARGLU1 (arginine and glutamate rich 1) | 0.4
ARGLU1 (arginine and glutamate rich 1) | -0.99
ARGLU1 (arginine and glutamate rich 1) | -0.04
FAM181A (family with sequence similarity 181 member A) | -0.17
FAM181A (family with sequence similarity 181 member A) | -0.13
FAM181A (family with sequence similarity 181 member A) | 0.11
FAM181A (family with sequence similarity 181 member A) | 1.04
CFAP61 (cilia and flagella associated protein 61) | -1.4
CFAP61 (cilia and flagella associated protein 61) | -0.67
CFAP61 (cilia and flagella associated protein 61) | -0.82
CFAP61 (cilia and flagella associated protein 61) | -0.66
NEDD1 (NEDD1 gamma-tubulin ring complex targeting factor) | -0.41
NEDD1 (NEDD1 gamma-tubulin ring complex targeting factor) | -0.77
NEDD1 (NEDD1 gamma-tubulin ring complex targeting factor) | 0.12
NEDD1 (NEDD1 gamma-tubulin ring complex targeting factor) | 0.2
FHDC1 (FH2 domain containing 1) | -0.4
FHDC1 (FH2 domain containing 1) | -0.63
FHDC1 (FH2 domain containing 1) | -0.05
FHDC1 (FH2 domain containing 1) | 0.26

The listing continues:
Target gene | TNF reporter robust z-score
H4C12 (H4 clustered histone 12) | 2.38
H4C12 (H4 clustered histone 12) | 1.5
H4C12 (H4 clustered histone 12) | 0.89
H4C12 (H4 clustered histone 12) | 0.62
RACK1 (receptor for activated C kinase 1) | -1.59 (active)
RACK1 (receptor for activated C kinase 1) | -0.2
RACK1 (receptor for activated C kinase 1) | -0.97
RACK1 (receptor for activated C kinase 1) | -1
SPZ1 (spermatogenic leucine zipper 1) | -0.05
SPZ1 (spermatogenic leucine zipper 1) | -0.17
SPZ1 (spermatogenic leucine zipper 1) | -0.57
SPZ1 (spermatogenic leucine zipper 1) | -0.27
CASP8AP2 (caspase 8 associated protein 2) | 0.67
CASP8AP2 (caspase 8 associated protein 2) | 0.6
CASP8AP2 (caspase 8 associated protein 2) | 0.3
CASP8AP2 (caspase 8 associated protein 2) | 0.78
BTN3A2 (butyrophilin subfamily 3 member A2) | 0.87
BTN3A2 (butyrophilin subfamily 3 member A2) | 0.45
BTN3A2 (butyrophilin subfamily 3 member A2) | 0.26
BTN3A2 (butyrophilin subfamily 3 member A2) | -0.06
TRMO (tRNA methyltransferase O) | -1.63 (active)
TRMO (tRNA methyltransferase O) | -0.03
TRMO (tRNA methyltransferase O) | -0.57
TRMO (tRNA methyltransferase O) | -0.13
ACVR1C (activin A receptor type 1C) | -0.25
ACVR1C (activin A receptor type 1C) | 0.16
ACVR1C (activin A receptor type 1C) | 0.94
ACVR1C (activin A receptor type 1C) | -0.42
TRIM2 (tripartite motif containing 2) | -0.69
TRIM2 (tripartite motif containing 2) | 0.05
TRIM2 (tripartite motif containing 2) | 1.27
TRIM2 (tripartite motif containing 2) | 0.95
UBQLN1 (ubiquilin 1) | 1.5
UBQLN1 (ubiquilin 1) | 0.48
UBQLN1 (ubiquilin 1) | 0.18
UBQLN1 (ubiquilin 1) | 3.43 (active)
ARID3A (AT-rich interaction domain 3A) | -0.58
ARID3A (AT-rich interaction domain 3A) | -0.02
ARID3A (AT-rich interaction domain 3A) | -0.53
ARID3A (AT-rich interaction domain 3A) | -0.15
PDE2A (phosphodiesterase 2A) | 3.97 (active)
PDE2A (phosphodiesterase 2A) | 4.04 (active)
PDE2A (phosphodiesterase 2A) | 1.72
DNAH10 (dynein axonemal heavy chain 10) | 1.65
DNAH10 (dynein axonemal heavy chain 10) | 2.5
DNAH10 (dynein axonemal heavy chain 10) | 0.24
DNAH10 (dynein axonemal heavy chain 10) | 1.14
PCDHB11 (protocadherin beta 11) | 0.14
PCDHB11 (protocadherin beta 11) | 1.43
PCDHB11 (protocadherin beta 11) | 0.29
PCDHB11 (protocadherin beta 11) | 1.63
HS3ST5 (heparan sulfate-glucosamine 3-sulfotransferase 5) | -1.55 (active)
HS3ST5 (heparan sulfate-glucosamine 3-sulfotransferase 5) | -0.09
HS3ST5 (heparan sulfate-glucosamine 3-sulfotransferase 5) | 0.09
HS3ST5 (heparan sulfate-glucosamine 3-sulfotransferase 5) | 0.11
HRH2 (histamine receptor H2) | -2.33 (active)
HRH2 (histamine receptor H2) | -1.61 (active)
HRH2 (histamine receptor H2) | -0.79
HRH2 (histamine receptor H2) | -1.94 (active)
RAB37 (RAB37, member RAS oncogene family) | 0.73
RAB37 (RAB37, member RAS oncogene family) | 0.78
RAB37 (RAB37, member RAS oncogene family) | 0.03
PRR23B (proline rich 23B) | 0.48
PRR23B (proline rich 23B) | -0.65
PRR23B (proline rich 23B) | 8.05 (active)
PRR23B (proline rich 23B) | -0.16
C4orf17 (chromosome 4 open reading frame 17) | 1.45
C4orf17 (chromosome 4 open reading frame 17) | 0.36
C4orf17 (chromosome 4 open reading frame 17) | 0.14
C4orf17 (chromosome 4 open reading frame 17) | 1.3
